{"source": "patent US20190142737A1", "about": "“SUBLINGUAL SPRAY FORMULATION COMPRISING DIHYDROARTEMESININ” (LondonPharma Ltd., priority 2009, published 2019)", "key": {"[1]": {"test": "Impurities of artemether in solvent systems after eight weeks storage (HPLC)", "type": "physicochemical", "conditions": "HPLC peak area", "source_text": "Tables 1 and 2 show impurities present in Artemether API, and artemether in three solvent systems: 20% ethanol+80% propellant; 50% ethanol+50% propellant; 100% ethanol; and a medium chain triglyceride, in this case, the triglyceride sold under the registered trade mark Miglyol® 810. Miglyol® is a medium chain triglyceride containing saturated C8 and C10 fatty acids, typically between 65-80% of caprylic acid (C8:0) and 20-35% of capric acid (C10:0). The propellant used in these test was 1,1,1,2 tetrafluoroethane, sold under the registered trade mark Zephex® 134a. Similar results were obtained for the propellants butane, Zephex® 227 (1,1,1,2,3,3,3 heptafluoropropane) and for a mixture of butane and propane. […] In all other cases, the impurities are at levels that exceed those permitted under the ICH Harmonised Tripartite Guidelines for Impurities in New Drug Products without specific identification or further toxicological examination."}, "[2]": {"test": "Solubility trial: dissolution of artemether in miglyol with menthol", "type": "physicochemical"}, "[3]": {"test": "Single-dose pharmacokinetic trial, sublingual spray vs oral tablet, plasma artemether and dihydroartemesinin", "type": "in vivo, human", "conditions": "for equivalent doses"}, "[4]": {"conditions": "storage at 30° C. for eight weeks"}, "[5]": {"conditions": "storage at 40° C. for eight weeks"}}, "note": "For part of these data: At least one read-out could not be matched to a standard name with certainty. For part of these data: At least one structure is not confirmed: it was looked up by name or label, or the drawing left a doubt.", "data": [{"compound": "CO[C@H]1O[C@@H]2O[C@@]3(C)CC[C@H]4[C@H](C)CC[C@@H]([C@H]1C)[C@@]24OO3", "note": "[artemether]", "values": [{"measurement": "Impurity at relative retention time 0.35", "setting": "[1]; [4]", "value": "0.4 % of artemether"}, {"measurement": "Impurity at relative retention time 0.73", "setting": "[1]; [4]", "value": "0.1 % of artemether"}, {"measurement": "Impurity at relative retention time 0.87", "setting": "[1]; [4]", "value": "0.2 % of artemether"}, {"measurement": "Impurity at relative retention time 0.35", "setting": "[1]; [5]", "value": "0.4 % of artemether"}, {"measurement": "Impurity at relative retention time 0.73", "setting": "[1]; [5]", "value": "0.1 % of artemether"}, {"measurement": "Impurity at relative retention time 0.87", "setting": "[1]; [5]", "value": "0.2 % of artemether"}, {"measurement": "Time to dissolution of artemether in miglyol", "setting": "[2]; artemether added before menthol", "value": 5, "unit": "minutes 55 seconds"}, {"measurement": "Time to dissolution of artemether in miglyol", "setting": "[2]; menthol added before artemether", "value": 4, "unit": "minutes 30 seconds"}, {"measurement": "Indicative bioavailability by the sublingual route relative to the oral route", "setting": "[3]", "value": "at least twice"}]}]}
